{"sequences": {"note": "Chains of the proteins cited; added tags and fusions are not shown. A line that says so, or that is headed by a name, gives the form on record, which may keep a tag or linker.", "UniProt P31388, with tags, fused parts or gaps L57V": "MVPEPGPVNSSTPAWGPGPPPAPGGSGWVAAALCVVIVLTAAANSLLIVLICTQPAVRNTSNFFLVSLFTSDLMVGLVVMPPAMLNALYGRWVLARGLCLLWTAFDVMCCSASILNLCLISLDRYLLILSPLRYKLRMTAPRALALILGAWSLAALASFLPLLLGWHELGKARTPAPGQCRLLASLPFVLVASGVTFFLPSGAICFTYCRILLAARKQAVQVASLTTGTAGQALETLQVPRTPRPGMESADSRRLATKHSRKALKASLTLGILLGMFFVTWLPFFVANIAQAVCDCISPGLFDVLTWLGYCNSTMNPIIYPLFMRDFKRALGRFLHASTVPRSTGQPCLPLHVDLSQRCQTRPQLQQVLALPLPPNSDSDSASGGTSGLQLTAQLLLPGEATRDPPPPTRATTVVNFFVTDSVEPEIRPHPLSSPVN"}, "source": "patent US6844190B2", "about": "“St-B17 serotonin receptor” (The United States of America as represented by the …, priority 1992, dated 2005)", "key": {"[1]": {"target": "T1, St-B17 stably expressed in HEK-293 cells (Rattus norvegicus, UniProt P31388, L57V)", "T1 construct": "expressed in transfected cells", "experiment": "cAMP accumulation in intact HEK-293 cells stably expressing St-B17", "type": "cell-based", "conditions": "10 μM final concentration, FIG. 5", "experimental": "Human Embryonic Kidney cells (HEK 293 available from the ATCC) were stably co-transfected in 150mm dishes by the CaPO4 technique with 30 μg of pSRα-B17 and 3 μg of pMam-neo (INVITROGEN). These HEK 293 cells were then subjected to selection with 600 μg/ml genetecin (G418) (GIBCO). The resistant colonies were collected and screened for receptor expression by [^125I]-LSD binding as described in Example 6.\nIntracellular cAMP levels were determined after a 5 minute incubation of intact cells with various test compounds at 37° C. in the presence of the cAMP phosphodiesterase inhibitor RO-20-1724, using a modification of a previously described cAMP assay (Monsma, F. J., Jr., Barton, A. C., and Sibley, D. R. (1990) J. Neurochemistry 54, 1200-1207) wherein the adrenal cAMP binding protein was replaced with 0.8 mg/ml protein kinase A in water."}, "[2]": {"target": "St-B17 serotonin receptor (Rattus norvegicus, UniProt P31388, L57V)", "experiment": "[125I]-LSD competition binding, Cos-7 cell membranes expressing St-B17", "set-up": "expressed in transfected cells; host or cells: Cos-7 cells, transient transfection, crude membranes", "conditions": "qualitative statement", "experimental": "This experiment was performed on Cos-7 cell membranes expressing the St-B17 serotonin receptor."}}}
{"molecule": "CCN(CC)C(=O)N[C@H]1C=C2c3cccc4[nH]cc(c34)C[C@H]2N(C)C1", "note": "[Lisuride]", "values": [{"measurement": "effect on cAMP levels on their own (in words)", "setting": "[1]", "result": "stimulate cAMP accumulation"}, {"measurement": "functional classification at St-B17 receptor", "setting": "[1]", "result": "partial agonists"}, {"measurement": "affinity for St-B17 (in words)", "setting": "[2]", "result": "relatively high affinity"}]}
